The supplement of paper PMC10689618
Some of the results follow. Single values are uncertain, as repeats are few or missing.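 Labelled rat cortical synaptosomes were engulfed by primary human fetal astrocytes. Engulfment equaled a red/green ratio, corrected for calcein live-cell signal and normalized to the plate median. Compounds were toxic when calcein dropped over 30%, and reduced phagocytosis when below 70% of the median above 5 µM.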

tested on: Human fetal astrocytes; assay: synaptosome phagocytosis (pHrodo/calcein intensity ratio) relative to plate median of data wells; higher = more phagocytosis; conditions: 5.56 µM; 24 h

| Compound | synaptosome phagocytosis [%] |
| --- | --- |
| CC(C(=O)O)c1ccc(C(=O)c2cccs2)cc1 (centres undefined) | 96.1 |
| CN1CC(=O)NC1=N | 81.5 |
| C=C[C@@H](C1=CC(=O)C(OC)=C(OC)C1=O)c1ccccc1 | 110 |
| C[C@]12CCC(=O)C=C1CC[C@@H]1[C@@H]2[C@@H](O)C[C@@]2(C)[C@H]1CC[C@]2(O)C(=O)COP(=O)(O)O | 121 |
| C[N+](C)(C)C[C@H](O)CC(=O)[O-] | 101 |
| C[C@H]1COC2=C1C(=O)C(=O)c1c2ccc2c1CCCC2(C)C | 79 |
| NC[C@H]1CC[C@H](C(=O)O)CC1 | 118 |
| COc1ccc(-c2cc(=O)c3c(O)cc(OC)c(OC)c3o2)c(OC)c1 | 91 |
| COc1cc(O)c(C(C)=O)c(O)c1 | 101 |
| COc1ccc([C@H]2Oc3cc(OC)cc(OC)c3C[C@H]2O)cc1 | 108 |
| O=C(O)[C@H](O)[C@@H](O)[C@H](O[C@@H]1O[C@H](CO)[C@H](O)[C@H](O)[C@H]1O)[C@H](O)CO | 112 |
| CCOc1ccc(NC(=O)CC(C)O)cc1 (centres undefined) | 89.7 |
| Cc1ccc(S(=O)(=O)NC(=O)NN2CCCCCC2)cc1 [Tolazamide] | 99.9 |
| c1ccc(CN(CC2=NCCN2)c2ccccc2)cc1 | 101 |
| CC(C)(C)NCC(O)c1cc(O)cc(O)c1 (centres undefined) | 98 |
| CC(C)(Oc1ccc(CCNC(=O)c2ccc(Cl)cc2)cc1)C(=O)O | 107 |
| O=C(O)CS | 139 |
| NC(=O)N1c2ccccc2CC(=O)c2ccccc21 [Trileptal] | 122 |
| CC(C)=CCC[C@@H](C)[C@@H]1CC[C@]2(C)C3=C(CC[C@@]12C)[C@@]1(C)CC[C@H](O)C(C)(C)[C@@H]1CC3 | 143 |
| COc1cc(C)c(C(=O)Oc2cc(C)c(C(=O)O)c(O)c2C)c(OC)c1C | 105 |

| Compound | synaptosome phagocytosis [%] |
| --- | --- |
| CON | 103 |
| O=C(O)Cc1cc(I)c(Oc2ccc(O)c(I)c2)c(I)c1 | 101 |
| CC(=O)Oc1cc(OC(C)=O)c2c(c1)O[C@H](c1ccc(OC(C)=O)c(OC(C)=O)c1)[C@H](OC(C)=O)C2 | 96.5 |
| Cc1occc(=O)c1O | 94 |
| CC(=O)C1CCC2C3CC=C4CC(OS(=O)(=O)O)CCC4(C)C3CCC12C (centres undefined) | 139 |
| CC(=O)NCCCCCC(=O)O | 106 |
| c1coc(CNc2ncnc3[nH]cnc23)c1 | 140 |
| CC(=O)Nc1ccc(S(=O)(=O)c2ccc(NC(C)=O)cc2)cc1 | 104 |
| O=C(O)CCNC(=O)c1ccccc1 | 86.1 |
| CC1(C)S[C@@H]2[C@H](NC(=O)[C@H](N)c3ccc(O)cc3)C(=O)N2[C@H]1C(=O)O | 115 |
| CC(=O)Oc1cc(OC(C)=O)c2c(c1)O[C@H](c1ccc(OC(C)=O)c(OC(C)=O)c1)[C@@H](OC(C)=O)C2 | 94.1 |
| COCCc1ccc(OCC(O)CNC(C)C)cc1 (centres undefined) | 81 |
| O=C(O)C(S)C(S)C(=O)O (centres undefined) | 105 |
| O=c1[nH]cnc2c1ncn2[C@@H]1O[C@H](CO)[C@@H](O)[C@H]1O | 105 |
| CN(C(=O)CN(CCO)CC(=O)N(C)C(C)(C)Cc1ccccc1)C(C)(C)Cc1ccccc1 | 122 |
| CC(C)C[C@@H]1NC(=O)[C@H](CCCN)NC(=O)[C@H](C(C)C)NC(=O)[C@H](Cc2ccc(O)cc2)N[C@@H](CCC(=O)O)C(=O)N[C@@H](CC(N)=O)C(=O)[C@@H](Cc2ccccc2)NC(=O)[C@H](Cc2ccccc2)NC(=O)[C@@H]2CCCN2C(=O)[C@@H](Cc2ccccc2)NC1=O | 27.7 |
| COc1cc2c(cc1OC)-c1c(oc3cc(O)cc(O)c3c1=O)CO2 | 158 |
| Oc1ccc(/C=C/c2cc(O)cc(O)c2)cc1 [5-[2-(4-hydroxyphenyl)vinyl]-1,3-benzenediol] | 120 |
| CC(=O)OC1CCC2(C)C3=C(CC[C@H]2C1(C)C)[C@@]1(C)CC[C@@H]([C@@H](C)CCC=C(C)C)[C@]1(C)CC3 (some centres undefined) | 102 |

Arranged by count of non-hydrogen atoms (high to low): 3 of the compounds above

| Compound | synaptosome phagocytosis [%] |
| --- | --- |
| CC(=O)Oc1cc(OC(C)=O)c2c(c1)O[C@H](c1ccc(OC(C)=O)c(OC(C)=O)c1)[C@@H](OC(C)=O)C2 | 94.1 |
| CC(=O)Nc1ccc(S(=O)(=O)c2ccc(NC(C)=O)cc2)cc1 | 104 |
| c1coc(CNc2ncnc3[nH]cnc23)c1 | 140 |
